Laboratory results taken from PMC4308848.
No constants are given. Whether binding was seen depends on the method and setting. Binding seen in cells or lysates may run through a third protein. Some binding calls cover weakened binding; strength is not graded here.

By UniProt entry, the sequences of proteins in these tests, tags left out. Residues count along the entry.
UniProt P21860, residues 20-1342: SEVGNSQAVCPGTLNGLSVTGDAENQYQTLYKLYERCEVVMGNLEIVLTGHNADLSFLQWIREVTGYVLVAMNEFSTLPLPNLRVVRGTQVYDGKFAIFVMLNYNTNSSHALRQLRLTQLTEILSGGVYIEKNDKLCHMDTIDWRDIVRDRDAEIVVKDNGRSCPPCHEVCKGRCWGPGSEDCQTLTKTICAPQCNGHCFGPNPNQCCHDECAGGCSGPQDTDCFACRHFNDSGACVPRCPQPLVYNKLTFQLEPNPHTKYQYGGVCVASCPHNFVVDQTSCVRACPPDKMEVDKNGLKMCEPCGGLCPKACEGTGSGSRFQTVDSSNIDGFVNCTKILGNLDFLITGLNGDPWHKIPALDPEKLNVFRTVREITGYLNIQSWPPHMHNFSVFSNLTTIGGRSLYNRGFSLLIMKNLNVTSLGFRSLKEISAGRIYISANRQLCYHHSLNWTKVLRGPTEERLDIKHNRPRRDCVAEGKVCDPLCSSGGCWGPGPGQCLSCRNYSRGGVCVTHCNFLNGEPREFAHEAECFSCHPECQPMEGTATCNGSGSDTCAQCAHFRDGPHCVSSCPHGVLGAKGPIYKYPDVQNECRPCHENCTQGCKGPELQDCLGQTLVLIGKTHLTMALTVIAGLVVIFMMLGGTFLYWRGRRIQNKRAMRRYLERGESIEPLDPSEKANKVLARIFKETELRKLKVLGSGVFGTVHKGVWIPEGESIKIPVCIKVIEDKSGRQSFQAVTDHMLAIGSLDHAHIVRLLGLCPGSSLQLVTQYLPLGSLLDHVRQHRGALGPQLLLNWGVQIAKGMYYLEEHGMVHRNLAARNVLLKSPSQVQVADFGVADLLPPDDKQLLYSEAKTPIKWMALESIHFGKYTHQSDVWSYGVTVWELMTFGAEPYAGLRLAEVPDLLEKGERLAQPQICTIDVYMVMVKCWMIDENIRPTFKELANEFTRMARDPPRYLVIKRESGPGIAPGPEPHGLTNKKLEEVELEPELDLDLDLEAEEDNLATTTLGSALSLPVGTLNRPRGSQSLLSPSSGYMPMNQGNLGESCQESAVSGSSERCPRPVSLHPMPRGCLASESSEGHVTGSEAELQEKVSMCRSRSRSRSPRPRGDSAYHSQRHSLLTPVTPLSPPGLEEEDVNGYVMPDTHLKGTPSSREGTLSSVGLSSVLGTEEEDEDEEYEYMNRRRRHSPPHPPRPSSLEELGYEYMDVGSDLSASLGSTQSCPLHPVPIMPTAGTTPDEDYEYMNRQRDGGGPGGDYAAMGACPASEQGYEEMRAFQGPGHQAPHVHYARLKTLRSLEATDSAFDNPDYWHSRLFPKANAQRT
UniProt P15941, residues 24-1255: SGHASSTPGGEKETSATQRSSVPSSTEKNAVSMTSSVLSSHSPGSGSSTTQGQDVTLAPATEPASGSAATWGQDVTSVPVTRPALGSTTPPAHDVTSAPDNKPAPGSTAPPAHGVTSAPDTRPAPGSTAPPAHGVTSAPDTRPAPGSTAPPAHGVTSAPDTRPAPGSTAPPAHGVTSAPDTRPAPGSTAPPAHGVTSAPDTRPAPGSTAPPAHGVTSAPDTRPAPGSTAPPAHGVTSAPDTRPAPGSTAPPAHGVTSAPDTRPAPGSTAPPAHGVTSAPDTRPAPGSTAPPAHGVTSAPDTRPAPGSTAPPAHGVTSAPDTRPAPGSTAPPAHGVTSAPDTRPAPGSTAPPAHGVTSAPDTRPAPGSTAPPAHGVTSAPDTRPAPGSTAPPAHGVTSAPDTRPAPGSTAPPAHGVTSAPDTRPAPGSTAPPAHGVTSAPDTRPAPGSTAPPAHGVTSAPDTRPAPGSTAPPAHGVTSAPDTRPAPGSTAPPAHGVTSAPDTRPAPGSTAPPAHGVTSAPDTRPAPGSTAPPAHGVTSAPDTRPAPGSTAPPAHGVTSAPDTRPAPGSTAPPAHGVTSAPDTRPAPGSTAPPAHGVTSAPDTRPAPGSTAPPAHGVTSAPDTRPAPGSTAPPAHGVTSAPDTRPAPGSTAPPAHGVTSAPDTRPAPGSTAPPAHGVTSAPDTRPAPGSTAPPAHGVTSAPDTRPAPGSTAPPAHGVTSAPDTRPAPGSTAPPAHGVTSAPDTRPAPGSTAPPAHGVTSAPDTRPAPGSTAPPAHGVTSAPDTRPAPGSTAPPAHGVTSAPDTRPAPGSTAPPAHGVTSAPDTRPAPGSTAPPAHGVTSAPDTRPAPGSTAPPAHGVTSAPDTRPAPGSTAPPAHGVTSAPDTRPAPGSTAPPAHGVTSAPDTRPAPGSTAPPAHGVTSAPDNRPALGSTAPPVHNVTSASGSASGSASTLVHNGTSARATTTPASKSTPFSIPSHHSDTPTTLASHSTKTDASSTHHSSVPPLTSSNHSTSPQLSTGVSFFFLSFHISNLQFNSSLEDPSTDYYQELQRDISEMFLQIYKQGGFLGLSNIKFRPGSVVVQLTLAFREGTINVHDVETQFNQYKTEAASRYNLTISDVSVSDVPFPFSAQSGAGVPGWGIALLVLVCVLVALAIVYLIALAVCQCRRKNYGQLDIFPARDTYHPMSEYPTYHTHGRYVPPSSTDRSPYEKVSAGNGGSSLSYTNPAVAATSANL

Target: human epidermal growth factor receptor 3 (human (endogenous in BT-474)) (UniProt P21860)
Experiment: co-IP; BT-474 cell lysates incubated with MUC1, EGFR and HER3 antibodies overnight, Western blot; BT-474 WT against TR, rhECM1 treatment (200 ng/ml, 48 h), ECM1 overexpression, ECM1 shRNA in TR cells

binding: binds
Substance: mucin 1 (from UniProt P15941 24-1255)
